Values quoted from earlier work, collected in patent US5028625A, “Acid addition salt of ibuprofen and meglumine” (priority 1989, dated 1991).

Conditions: cited from earlier work

SMILES: CC(C)Cc1ccc(C(C)C(=O)O)cc1 (centres unmarked) [ibuprofen, Ibuprofen]
- solubility in water (background statement): sparingly soluble in water
- ibuprofen aqueous solubility (water): 0.006 % weight by volume
